These results are taken from patent US20190367628A1.

The chains are these.
B1: PI-61 (monoclonal phage clone) (protein)
VH: QVQLQESGGGVVQPGRSLRLSCAASGFTFSSYGMHWVRQAPGKGLEWVAVISYDGSNKYYADSVKGRFTISRDNSKNTLYLQMNSLRAEDTAVYYCGGSGYALHDDYYGLDVWGQGTLVTVSS
VL: QSALTQPASVSGSPGQSITISCTGTSSDVGGYNYVSWYQQHPGKAPKLMIYDVSNRPSGVSNRFSGSKSGNTASLTISGLQAEDEADYYCSSYTSSSTLYVFGSGTKVTVL
B2: H2/L2-18 scFv (scFv)
scFv: QAQLQGSGGGVVQPGRSLRLSCAASGFTFSSYGMHWVRQAPGKGLEWVAVISYKGSHKYYADSVKGRFTISRDNSKNTLYLQMNSLRAEDTAVYYCGGSGYALHDDYYGLDVWGQGTLVTVSSSGGGGSGGGGSGGGGSGGGGSQSALTQPASVSGSPGQSITISCTGTSSDVGGYNYVSWYQQHPGKAPKLMIYDVSNRPWGVSNRFSGSKFGNTASLTISGLQAEDEADYYCSSYTSSSTLYVFGSGTKVTVL
B3: H2/L2-47 scFv (scFv)
scFv: QVQLQSSEGGVVQPGRSLRLSCAASGFTFSSYGMHWVRQAPGKGLEWVAVISYKGSNKYYADSVKGRFTISRDNSKNTLYLQMNSLRAEDTAVYYCGGSGYALHDDYYGLDVWGQGTLVTVSSSGGGGSGGGGSGGGGSGGGGSQSALTQPASVSGSPGQSITISCTGTSSDVGGYNYVSWYQQHPGKAPKLMIYDVSNRPWGVSNRFSGSKFGNTASLTISGLQAEDEADYYCSSYTSSSTLYVFGSGTKVTVL
B4: H2/L2-88 scFv (scFv)
scFv: QVQLQSSEGGVVQPGRSLRLSCAASGFTFSSYGMHWVRQAPGKGLEWVAVISYKGSNKYYADSVKGRFTISRDNSKNTLYLQMNSLRAEDTAVYYCGGSGYALHDDYYGLDVWGQGTLVTVSSSGGGGSGGGGSGGGGSGGGGSQSALTQPASVSGSPGQSITISCTGTSSDVGGYNYVSWYQQHPGKAPKLMIYEVSNRLRGVSNRFSGSKFGNTASLTISGLQAEDEADYYCSSYTSSSALYVFGSGTKVTVL
B5: H2/L2-80 scFv (scFv)
scFv: QVQLQSSGGGVVQPGRSLRLSCAASGFTFSSYGMHWVRQAPGKGLEWVAVISYTGSNKYYADSVKGRFTISRDNSKNTLYLQMNSLRAEDTAVYYCGGSGYALHDDYYGLDVWGQGTLVTVSSSGGGGSGGGGSGGGGSGGGGSQSALTQPASVSGSPGQSITISCTGTSSDVGGYNYVSWYQQHPGKAPKLMIYDVSNRAWGVSNRFSGSKFGNTASLTISGLQAEDEADYYCSSYTSSSALYVFGSGTKVTVL
B6: H2/L2-20 scFv (scFv)
scFv: QAQLQSSGGGVVQPGRSLRLSCAASGFTVSSYGMHWVRQAPGKGLEWVAVISYTGSNKYYADSVKGRFTISRDNSKNTLYLQMNSLRAEDTAVYYCGGSGYALHDDYYGLDVWGQGTLVTVSSSGGGGSGGGGSGGGGSGGGGSQSALTQPASVSGSPGQSITISCTGTSSDVGGYNYVSWYQQHPGKAPKLMIYDVSNRLRGVSNRFSGSKFGNTASLTISGLQAEDEADYYCSSYTSSSALYVFGSGTKVTVL
B7: H2/L2-36 scFv (scFv)
scFv: QAQLQSSGGGVVQPGRSLRLSCAASGFTFSSYGMHWVRQAPGKGLEWVAVISYKGSNKYYADSVKGRFTISRDNSKNTLYLQMNSLRAEDTAVYYCGGSGYALHDDYYGLDVWGQGTLVTVSSSGGGGSGGGGSGGGGSGGGGSQSALTQPASVSGSPGQSITISCTGTSSDVGGYNYVSWYQQHPGKAPKLMIYEVSNRLRGVSNRFSGSKFGNTASLTISGLQAEDEADYYCSSYTSSSTLYVFGSGTKVTVL
B8: H2/L2-83 scFv (scFv)
scFv: QAQLQGSGGGVVQPGRSLRLSCAASGFTFSSYGMHWVRQAPGKGLEWVAVISYKGSNKYYADSVKGRFTISRDNSKNTLYLQMNSLRAEDTAVYYCGGSGYALHDDYYGLDVWGQGTLVTVSSSGGGGSGGGGSGGGGSGGGGSQSALTQPASVSGSPGQSITISCTGTSSDVGGYNYVSWYQQHPGKAPKLMIYEVSNRLRGVSNRFSGSKFGNTASLTISGLQAEDEADYYCSSYTSSSTLYVFGSGTKVTVL
B9: H2/L2-68 scFv (scFv)
scFv: QAQLQSSEGGVVQPGRSLRLSCAASGFTFSSYGMHWVRQAPGKGLEWVAVISYRGFNKYYADSVKGRFTISRDNSKNTLYLQMNSLRAEDTAVYYCGGSGYALHDDYYGQDVWGQGTLVTVSSSGGGGSGGGGSGGGGSGGGGSQSALTQPASVSGSPGQSITISCTGTSSDVGGYNYVSWYQQHPGKAPKLMIYDVSNRLSGVSNRFSGSKFGNTASLTISGLQAEDEADYYCSSYTSSSTLYVFGSGTKVTVL
B10: H2/L2-34 scFv (scFv)
scFv: QVQLQDSEGGVVQPGRSLRLSCAASGFTFSSYGMHWVRQAPGKGLEWVAVISYTGTKKYYADSVKGRFTISRDNSKNTLYLQMNSLRAEDTAVYYCGGSGYALHDDYYGLDVWGQGTLVTVSSSGGGGSGGGGSGGGGSGGGGSQSALTQPASVSGSPGQSITISCTGTSSDVGGYNYVSWYQQHPGKAPKLMIYDVSNRPWGVSNRFSGSKFGNTASLTISGLQAEDEADYYCSSYTSSSALYVFGSGTKVTVM

No constants are given. Whether binding was seen depends on the method and setting. Some results given as binding are weak or reduced against the parent protein; the word gives no strength.

In one assay the target is biotinylated human IgG1 Fc (Jackson Immunoresearch cat #009-060-008) (human) [IgG part: P01857]. The assay can be described thus: monoclonal phage ELISA, anti-M13-HRP, Abs450 against fold dilution of phage. In general terms: In an ELISA, binding on a coated surface is turned into a signal by an enzyme label.
As to B1, the binding result is recorded as “no binding (tested: fold dilution 1 (undiluted phage))”.

The next assay concerns the target Cyno BCMA APP-Avi (cynomolgus). As to the kind of experiment: flow cytometry, yeast-displayed scFv labelled with biotinylated cyno BCMA at 20 nM, 900 pM or none. For orientation: A flow cytometer gives signals particle by particle.
On to B2, for which the binding entry was “binds”.

B3: the binding entry is recorded as “binds”.

B4: the binding result is listed as “binds”.

Turning to B5, the binding result is on record as “binds”.

Consider B6, for which the binding result was “binds”.

With B7, the binding entry is “binds”.

Take B8: the binding result is listed as “binds”.

For B9, the binding entry is “binds”.

As for B10, the binding result is reported as “binds”.
